{"source": "paper PMC5785023", "key": {"[1]": {"biological_target": "T1, AKAP200-S-Flag (Drosophila melanogaster) (UniProt Q9VLL3)", "T1 sequence": "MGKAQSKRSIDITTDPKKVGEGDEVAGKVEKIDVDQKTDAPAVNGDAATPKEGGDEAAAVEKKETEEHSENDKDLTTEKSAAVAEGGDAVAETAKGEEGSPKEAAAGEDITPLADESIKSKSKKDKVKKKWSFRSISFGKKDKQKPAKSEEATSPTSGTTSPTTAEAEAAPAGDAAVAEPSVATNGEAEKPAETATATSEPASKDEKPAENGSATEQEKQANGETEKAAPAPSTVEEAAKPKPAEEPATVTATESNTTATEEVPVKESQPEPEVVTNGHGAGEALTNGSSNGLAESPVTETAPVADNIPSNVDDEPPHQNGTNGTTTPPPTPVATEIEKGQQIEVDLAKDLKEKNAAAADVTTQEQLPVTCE", "assay": "co-IP; S2 cells co-transfected with pmt-Notch(full length) (600 μM CuSO4, 24 h) and pac-AKAP200-S-Flag or pAC-Flag control; lysis in 50mM Tris HCl pH 7.5, 150mM NaCl, 1mM EDTA, 1% Triton-X; anti-Flag M2 agarose overnight at 4°C; blot with anti-NICD (normal and long exposure)"}, "[2]": {"biological_target": "Notch-GFP (Drosophila melanogaster)", "assay": "co-IP; S2 cells co-transfected with pac-AKAP200-S-Flag and pUAST-Notch-GFP or pUAST-GFP (with Actin-Gal4); GFP-Trap A (Chromotek); wash buffer 10mM TrisHCl pH7.5, 150mM NaCl, 0.5mM EDTA; blot with anti-Flag"}}, "note": "Results are given in words; binding and its absence hold for the method and conditions named. Binding seen in cells or lysates may run through a third protein. Binding can be weak; no strength is given. Tags and fused reporters may be left off the sequences shown.", "data": [{"molecule": "full length Notch (Drosophila melanogaster) (receptor)", "values": [{"measurement": "binding", "setting": "[1]", "result": "no binding"}]}, {"molecule": "Notch intracellular domain (NICD) fragment (Drosophila melanogaster) (domain or fragment)", "values": [{"measurement": "binding", "setting": "[1]", "result": "binds"}]}, {"molecule": "AKAP200-S-Flag (protein, UniProt Q9VLL3-2 1-372) MGKAQSKRSIDITTDPKKVGEGDEVAGKVEKIDVDQKTDAPAVNGDAATPKEGGDEAAAVEKKETEEHSENDKDLTTEKSAAVAEGGDAVAETAKGEEGSPKEAAAGEDITPLADESIKSKSKKDKVKKKWSFRSISFGKKDKQKPAKSEEATSPTSGTTSPTTAEAEAAPAGDAAVAEPSVATNGEAEKPAETATATSEPASKDEKPAENGSATEQEKQANGETEKAAPAPSTVEEAAKPKPAEEPATVTATESNTTATEEVPVKESQPEPEVVTNGHGAGEALTNGSSNGLAESPVTETAPVADNIPSNVDDEPPHQNGTNGTTTPPPTPVATEIEKGQQIEVDLAKDLKEKNAAAADVTTQEQLPVTCE", "values": [{"measurement": "binding", "setting": "[2]", "result": "binds"}]}]}
